Data reported in patent US20190234942A1.
These are yes or no findings as the source states them, for the method shown. For some assays here: In cells and extracts the contact can be indirect. Some binding calls cover weakened binding; strength is not graded here. For some assays here: Tags and fused reporters may be left off the sequences shown. Blank lines part the entries; values can stand above or below the binder they belong to.

Protein sequences, listed by entry. Tags and fused reporters are not part of them. Lines headed by an entry give the natural chain unless they say otherwise; changes in a name come on top.
UniProt O75140: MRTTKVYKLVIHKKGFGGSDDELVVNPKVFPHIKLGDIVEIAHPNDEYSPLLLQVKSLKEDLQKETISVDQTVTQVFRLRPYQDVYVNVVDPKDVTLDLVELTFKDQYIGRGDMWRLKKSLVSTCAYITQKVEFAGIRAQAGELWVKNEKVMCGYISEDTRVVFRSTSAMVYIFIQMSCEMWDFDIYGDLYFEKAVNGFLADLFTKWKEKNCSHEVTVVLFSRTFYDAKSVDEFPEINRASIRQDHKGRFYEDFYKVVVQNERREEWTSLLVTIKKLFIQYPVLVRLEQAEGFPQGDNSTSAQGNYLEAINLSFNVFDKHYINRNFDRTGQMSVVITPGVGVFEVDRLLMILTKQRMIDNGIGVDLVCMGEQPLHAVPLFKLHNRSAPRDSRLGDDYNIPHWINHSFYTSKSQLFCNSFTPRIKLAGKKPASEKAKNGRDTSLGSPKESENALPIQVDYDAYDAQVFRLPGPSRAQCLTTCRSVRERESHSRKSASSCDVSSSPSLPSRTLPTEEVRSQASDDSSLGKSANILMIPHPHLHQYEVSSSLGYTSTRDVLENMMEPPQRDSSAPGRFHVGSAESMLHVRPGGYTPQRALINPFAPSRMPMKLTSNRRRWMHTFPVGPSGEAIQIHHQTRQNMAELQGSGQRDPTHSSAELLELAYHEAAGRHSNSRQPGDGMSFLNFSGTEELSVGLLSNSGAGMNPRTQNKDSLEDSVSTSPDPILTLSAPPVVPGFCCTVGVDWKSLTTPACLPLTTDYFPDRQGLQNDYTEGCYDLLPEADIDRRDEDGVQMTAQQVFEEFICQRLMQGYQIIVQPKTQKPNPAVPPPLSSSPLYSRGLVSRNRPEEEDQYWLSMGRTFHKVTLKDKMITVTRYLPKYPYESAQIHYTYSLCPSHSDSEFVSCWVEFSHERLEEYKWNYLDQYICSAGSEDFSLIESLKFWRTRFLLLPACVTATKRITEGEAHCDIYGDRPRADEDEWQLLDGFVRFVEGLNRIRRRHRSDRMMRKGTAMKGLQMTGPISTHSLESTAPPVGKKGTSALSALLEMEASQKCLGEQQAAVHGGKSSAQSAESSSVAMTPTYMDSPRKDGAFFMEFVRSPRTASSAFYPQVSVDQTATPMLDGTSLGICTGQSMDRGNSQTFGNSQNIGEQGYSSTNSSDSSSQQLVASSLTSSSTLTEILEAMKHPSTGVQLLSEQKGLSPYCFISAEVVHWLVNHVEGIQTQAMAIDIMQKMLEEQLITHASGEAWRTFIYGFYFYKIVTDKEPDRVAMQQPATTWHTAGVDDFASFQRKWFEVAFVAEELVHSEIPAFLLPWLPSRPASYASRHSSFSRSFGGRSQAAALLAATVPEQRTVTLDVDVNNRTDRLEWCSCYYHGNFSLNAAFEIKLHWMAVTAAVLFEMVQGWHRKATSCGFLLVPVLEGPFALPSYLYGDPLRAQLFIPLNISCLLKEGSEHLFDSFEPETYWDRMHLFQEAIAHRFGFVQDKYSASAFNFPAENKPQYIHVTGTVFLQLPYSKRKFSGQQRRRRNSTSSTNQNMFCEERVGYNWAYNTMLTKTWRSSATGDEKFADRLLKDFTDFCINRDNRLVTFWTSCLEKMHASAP
UniProt Q9Y664: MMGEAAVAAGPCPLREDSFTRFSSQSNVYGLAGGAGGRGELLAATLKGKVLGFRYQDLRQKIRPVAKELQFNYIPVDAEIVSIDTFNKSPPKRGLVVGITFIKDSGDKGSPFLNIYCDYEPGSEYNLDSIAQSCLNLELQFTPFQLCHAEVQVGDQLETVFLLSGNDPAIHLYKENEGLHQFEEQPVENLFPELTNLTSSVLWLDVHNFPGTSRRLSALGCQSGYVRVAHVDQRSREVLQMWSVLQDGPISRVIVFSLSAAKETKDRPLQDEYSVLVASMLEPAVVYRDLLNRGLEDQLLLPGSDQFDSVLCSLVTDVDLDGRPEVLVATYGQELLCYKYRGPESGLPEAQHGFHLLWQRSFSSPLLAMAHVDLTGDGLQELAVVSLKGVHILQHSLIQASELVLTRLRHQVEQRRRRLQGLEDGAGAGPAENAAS

How the values were obtained:
[1] = target: GATOR1 complex (Depdc5, Npr13, Npr12) (UniProt O75140); assay: in vitro dissociation assay: anti-FLAG IP of endogenous FLAG-Depdc5 from HEK-293T, compounds added to the immunoprecipitate, immunoblot for SAMTOR
[2] = target: KICSTOR complex (Kaptin, ITFG2, C12orf66, SZT2) (UniProt Q9Y664); assay: co-immunoprecipitation: anti-FLAG IP from HEK-293T stably expressing FLAG-Kaptin, immunoblot for endogenous SAMTOR
[3] = target: KICSTOR complex (Kaptin, ITFG2, C12orf66, SZT2) (UniProt Q9Y664); assay: anti-FLAG co-IP (FLAG-Kaptin), immunoblot, FIG. 1A
[4] = target: GATOR1-KICSTOR supercomplex (UniProt O75140); assay: in vitro dissociation assay on anti-FLAG (Depdc5) immunoprecipitates, immunoblot
[5] = target: GATOR1 complex (Depdc5, Npr13, Npr12) (UniProt O75140); assay: co-immunoprecipitation: anti-FLAG IP from HEK-293T with endogenously FLAG-tagged Depdc5, immunoblot for endogenous SAMTOR
[6] = target: GATOR1 complex (Depdc5, Npr13, Npr12) (UniProt O75140); assay: anti-FLAG co-IP from HEK-293T cells with endogenously FLAG-tagged Depdc5, immunoblot for SAMTOR
[7] = target: KICSTOR complex (Kaptin, ITFG2, C12orf66, SZT2) (UniProt Q9Y664); assay: anti-FLAG co-IP from HEK-293T cells stably expressing FLAG-Kaptin, immunoblot for SAMTOR
[8] = target: GATOR1 complex (Depdc5, Npr13, Npr12) (UniProt O75140); assay: anti-FLAG co-IP (endogenously FLAG-tagged Depdc5), immunoblot, FIG. 1A
[9] = target: GATOR1 complex (Depdc5, Npr13, Npr12) (UniProt O75140); assay: in vitro dissociation assay on anti-FLAG (Depdc5) immunoprecipitates, immunoblot, FIG. 3C and 3D
[10] = target: GATOR1 complex (Depdc5, Npr13, Npr12) (UniProt O75140); assay: in vitro dissociation assay: anti-FLAG IP of endogenous FLAG-Depdc5 from HEK-293T, SAM or SAH (0-300 µM) added to the immunoprecipitate, immunoblot for SAMTOR
[11] = target: GATOR1 complex (Depdc5, Npr13, Npr12) (UniProt O75140); assay: anti-HA co-IP from HEK-293T cells, immunoblot, FIG. 3F
[12] = target: KICSTOR complex (Kaptin, ITFG2, C12orf66, SZT2) (UniProt Q9Y664); assay: as above
[13] = target: GATOR1 complex (Depdc5, Npr13, Npr12) (UniProt O75140); assay: anti-HA co-IP from HEK-293T cells, immunoblot
[14] = target: KICSTOR complex (Kaptin, ITFG2, C12orf66, SZT2) (UniProt Q9Y664); assay: anti-HA co-IP from HEK-293T cells, immunoblot
[15] = target: KICSTOR complex (Kaptin, ITFG2, C12orf66, SZT2) (UniProt Q9Y664); assay: co-immunoprecipitation: anti-HA IP from transfected HEK-293T, with or without 100 µM SAM added to the immunoprecipitate, immunoblot for endogenous SZT2
[16] = target: GATOR1 complex (Depdc5, Npr13, Npr12) (UniProt O75140); assay: co-immunoprecipitation: anti-HA IP from transfected HEK-293T, with or without 100 µM SAM added to the immunoprecipitate, immunoblot for endogenous Nprl3
[17] = target: GATOR1 complex (Depdc5, Npr13, Npr12) (UniProt O75140); assay: anti-HA co-IP from HEK-293T cells, immunoblot, FIG. 3F; wild type is the reference
[18] = target: KICSTOR complex (Kaptin, ITFG2, C12orf66, SZT2) (UniProt Q9Y664); assay: as above
[19] = target: GATOR1-KICSTOR supercomplex (UniProt O75140); assay: anti-HA co-IP from HEK-293T cells kept in RPMI, starved of methionine, or restimulated; immunoblot
[20] = target: GATOR1 complex (Depdc5, Npr13, Npr12) (UniProt O75140); assay: co-immunoprecipitation: anti-HA IP from HEK-293T expressing HA-SAMTOR, in RPMI, starved of methionine for 2 h, or restimulated with 100 µM methionine or 1 mM SAM; immunoblot for endogenous Nprl3
[21] = target: GATOR1 complex (Depdc5, Npr13, Npr12) (UniProt O75140); assay: anti-HA co-IP from HEK-293T cells, immunoblot; wild type is the reference
[22] = target: KICSTOR complex (Kaptin, ITFG2, C12orf66, SZT2) (UniProt Q9Y664); assay: as above
[23] = target: GATOR1 complex (Depdc5, Npr13, Npr12) (UniProt O75140); assay: anti-HA co-IP from HEK-293T cells, immunoblot, FIG. 4B
[24] = target: KICSTOR complex (Kaptin, ITFG2, C12orf66, SZT2) (UniProt Q9Y664); assay: co-immunoprecipitation: anti-FLAG IP of transfected FLAG-SAMTOR from wild-type, sgNprl3, sgSZT2 or sgWDR24 HEK-293T, immunoblot for endogenous SZT2
[25] = target: GATOR1 complex (Depdc5, Npr13, Npr12) (UniProt O75140); assay: anti-FLAG co-IP from HEK-293T cells, immunoblot, FIG. 1B
[26] = target: KICSTOR complex (Kaptin, ITFG2, C12orf66, SZT2) (UniProt Q9Y664); assay: as above
[27] = target: GATOR1 complex (Depdc5, Npr13, Npr12) (UniProt O75140); assay: co-immunoprecipitation: anti-FLAG IP of transfected FLAG-SAMTOR from wild-type, sgNprl3, sgSZT2 or sgWDR24 HEK-293T, immunoblot for endogenous Nprl3
[28] = target: GATOR1 complex (Depdc5, Npr13, Npr12) (UniProt O75140); assay: anti-FLAG co-IP from HEK-293T cells, immunoblot for Npr13
[29] = target: GATOR1-KICSTOR supercomplex (UniProt O75140); assay: anti-FLAG co-IP from wild-type and component-deficient HEK-293T cells
[30] = target: KICSTOR complex (Kaptin, ITFG2, C12orf66, SZT2) (UniProt Q9Y664); assay: anti-FLAG co-IP from HEK-293T cells, immunoblot for SZT2

binding [1]: binds
binding [2]: binds
binding [3]: binds
binding [4]: binds
binding [5]: binds
binding [6]: binds
binding [7]: binds
binding [8]: binds
binding [9]: binds
binding [10]: binds
B1: SAMTOR (S-adenosylmethionine sensor upstream of mTORC1), endogenous protein in HEK-293T cells (protein, human, UniProt Q1RMZ1 1-405, looked up)
chain: MEPGAGGRNTARAQRAGSPNTPPPREQERKLEQEKLSGVVKSVHRRLRKKYREVGDFDKIWREHCEDEETLCEYAVAMKNLADNHWAKTCEGEGRIEWCCSVCREYFQNGGKRKALEKDEKRAVLATKTTPALNMHESSQLEGHLTNLSFTNPEFITELLQASGKIRLLDVGSCFNPFLKFEEFLTVGIDIVPAVESVYKCDFLNLQLQQPLQLAQDAIDAFLKQLKNPIDSLPGELFHVVVFSLLLSYFPSPYQRWICCKKAHELLVLNGLLLIITPDSSHQNRHAMMMKSWKIAIESLGFKRFKYSKFSHMHLMAFRKISLKTTSDLVSRNYPGMLYIPQDFNSIEDEEYSNPSCYVRSDIEDEQLAYGFTELPDAPYDSDSGESQASSIPFYELEDPILLLS

binding [11]: binds
binding [12]: binds
binding [13]: binds
binding [14]: binds
binding [15]: binds
binding [16]: binds
B2: HA-SAMTOR(D190A) (protein, human, UniProt Q1RMZ1 1-405, looked up, not shown: small tags and cut ends)
chain: MEPGAGGRNTARAQRAGSPNTPPPREQERKLEQEKLSGVVKSVHRRLRKKYREVGDFDKIWREHCEDEETLCEYAVAMKNLADNHWAKTCEGEGRIEWCCSVCREYFQNGGKRKALEKDEKRAVLATKTTPALNMHESSQLEGHLTNLSFTNPEFITELLQASGKIRLLDVGSCFNPFLKFEEFLTVGIAIVPAVESVYKCDFLNLQLQQPLQLAQDAIDAFLKQLKNPIDSLPGELFHVVVFSLLLSYFPSPYQRWICCKKAHELLVLNGLLLIITPDSSHQNRHAMMMKSWKIAIESLGFKRFKYSKFSHMHLMAFRKISLKTTSDLVSRNYPGMLYIPQDFNSIEDEEYSNPSCYVRSDIEDEQLAYGFTELPDAPYDSDSGESQASSIPFYELEDPILLLS

binding [17]: binds
binding [18]: binds
binding [19]: binds
binding [20]: binds
binding [21]: binds
binding [22]: binds
binding [15]: binds
binding [23]: binds
binding [16]: binds
B3: HA-SAMTOR wild-type (transiently expressed from pRK5) (protein, human, UniProt Q1RMZ1 1-405, looked up, not shown: small tags and cut ends)
chain: MEPGAGGRNTARAQRAGSPNTPPPREQERKLEQEKLSGVVKSVHRRLRKKYREVGDFDKIWREHCEDEETLCEYAVAMKNLADNHWAKTCEGEGRIEWCCSVCREYFQNGGKRKALEKDEKRAVLATKTTPALNMHESSQLEGHLTNLSFTNPEFITELLQASGKIRLLDVGSCFNPFLKFEEFLTVGIDIVPAVESVYKCDFLNLQLQQPLQLAQDAIDAFLKQLKNPIDSLPGELFHVVVFSLLLSYFPSPYQRWICCKKAHELLVLNGLLLIITPDSSHQNRHAMMMKSWKIAIESLGFKRFKYSKFSHMHLMAFRKISLKTTSDLVSRNYPGMLYIPQDFNSIEDEEYSNPSCYVRSDIEDEQLAYGFTELPDAPYDSDSGESQASSIPFYELEDPILLLS

binding [11]: binds
binding [12]: binds
binding [13]: binds
binding [14]: binds
binding [15]: binds
binding [16]: binds
B4: HA-SAMTOR(G172A) (protein, human, UniProt Q1RMZ1 1-405, looked up, not shown: small tags and cut ends)
chain: MEPGAGGRNTARAQRAGSPNTPPPREQERKLEQEKLSGVVKSVHRRLRKKYREVGDFDKIWREHCEDEETLCEYAVAMKNLADNHWAKTCEGEGRIEWCCSVCREYFQNGGKRKALEKDEKRAVLATKTTPALNMHESSQLEGHLTNLSFTNPEFITELLQASGKIRLLDVASCFNPFLKFEEFLTVGIDIVPAVESVYKCDFLNLQLQQPLQLAQDAIDAFLKQLKNPIDSLPGELFHVVVFSLLLSYFPSPYQRWICCKKAHELLVLNGLLLIITPDSSHQNRHAMMMKSWKIAIESLGFKRFKYSKFSHMHLMAFRKISLKTTSDLVSRNYPGMLYIPQDFNSIEDEEYSNPSCYVRSDIEDEQLAYGFTELPDAPYDSDSGESQASSIPFYELEDPILLLS

binding [24]: binds
binding [25]: binds
binding [26]: binds
binding [27]: binds
binding [28]: binds
binding [29]: binds
binding [30]: binds
B5: FLAG-SAMTOR (transiently expressed from pRK5) (protein, human, UniProt Q1RMZ1 1-405, looked up, not shown: small tags and cut ends)
chain: MEPGAGGRNTARAQRAGSPNTPPPREQERKLEQEKLSGVVKSVHRRLRKKYREVGDFDKIWREHCEDEETLCEYAVAMKNLADNHWAKTCEGEGRIEWCCSVCREYFQNGGKRKALEKDEKRAVLATKTTPALNMHESSQLEGHLTNLSFTNPEFITELLQASGKIRLLDVGSCFNPFLKFEEFLTVGIDIVPAVESVYKCDFLNLQLQQPLQLAQDAIDAFLKQLKNPIDSLPGELFHVVVFSLLLSYFPSPYQRWICCKKAHELLVLNGLLLIITPDSSHQNRHAMMMKSWKIAIESLGFKRFKYSKFSHMHLMAFRKISLKTTSDLVSRNYPGMLYIPQDFNSIEDEEYSNPSCYVRSDIEDEQLAYGFTELPDAPYDSDSGESQASSIPFYELEDPILLLS
